Assay results as given in article PMC4711953.

Sequences of proteins named here, by UniProt entry; tags and fusion partners are left off. A change or cut given only in a name is not applied to a line headed by its entry.
UniProt A0A125YQD4: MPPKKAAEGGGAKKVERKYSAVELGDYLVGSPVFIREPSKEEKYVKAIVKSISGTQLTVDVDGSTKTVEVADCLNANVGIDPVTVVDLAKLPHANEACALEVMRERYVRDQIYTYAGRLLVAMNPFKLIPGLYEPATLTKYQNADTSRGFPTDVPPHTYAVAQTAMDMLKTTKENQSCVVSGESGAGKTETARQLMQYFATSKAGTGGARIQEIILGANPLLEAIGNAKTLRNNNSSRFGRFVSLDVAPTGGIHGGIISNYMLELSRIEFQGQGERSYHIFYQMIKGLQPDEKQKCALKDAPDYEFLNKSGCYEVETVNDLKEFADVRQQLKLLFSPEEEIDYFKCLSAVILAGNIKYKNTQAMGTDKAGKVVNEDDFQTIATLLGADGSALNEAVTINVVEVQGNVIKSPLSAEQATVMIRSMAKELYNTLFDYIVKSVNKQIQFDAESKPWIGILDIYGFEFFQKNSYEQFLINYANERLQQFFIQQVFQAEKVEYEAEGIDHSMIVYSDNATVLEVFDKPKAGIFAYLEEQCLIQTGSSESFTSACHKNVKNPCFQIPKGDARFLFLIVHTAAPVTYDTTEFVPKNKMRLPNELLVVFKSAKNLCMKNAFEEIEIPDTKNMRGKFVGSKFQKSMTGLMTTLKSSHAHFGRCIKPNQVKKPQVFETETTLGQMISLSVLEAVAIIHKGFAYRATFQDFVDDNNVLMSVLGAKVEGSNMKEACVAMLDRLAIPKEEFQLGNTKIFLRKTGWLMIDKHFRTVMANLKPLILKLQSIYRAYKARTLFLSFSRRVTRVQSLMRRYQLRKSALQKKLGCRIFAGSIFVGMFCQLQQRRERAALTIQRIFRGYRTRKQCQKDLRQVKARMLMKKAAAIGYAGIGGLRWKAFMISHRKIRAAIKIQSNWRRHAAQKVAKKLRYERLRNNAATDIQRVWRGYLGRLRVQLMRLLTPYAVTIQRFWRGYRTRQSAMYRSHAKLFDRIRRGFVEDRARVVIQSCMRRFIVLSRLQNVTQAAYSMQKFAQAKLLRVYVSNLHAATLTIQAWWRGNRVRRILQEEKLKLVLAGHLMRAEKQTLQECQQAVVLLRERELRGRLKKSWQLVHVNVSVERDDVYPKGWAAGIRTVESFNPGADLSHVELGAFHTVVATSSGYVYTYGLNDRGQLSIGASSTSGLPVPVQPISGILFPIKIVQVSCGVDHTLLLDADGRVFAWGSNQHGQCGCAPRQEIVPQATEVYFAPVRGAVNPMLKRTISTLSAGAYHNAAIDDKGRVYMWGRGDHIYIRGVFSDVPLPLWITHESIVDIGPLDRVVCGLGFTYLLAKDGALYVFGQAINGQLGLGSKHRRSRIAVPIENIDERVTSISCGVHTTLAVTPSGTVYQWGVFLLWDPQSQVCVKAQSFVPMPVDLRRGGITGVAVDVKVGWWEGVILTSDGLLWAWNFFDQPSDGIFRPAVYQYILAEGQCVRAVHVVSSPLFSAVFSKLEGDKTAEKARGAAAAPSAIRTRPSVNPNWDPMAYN

Target: MLC5-3Ty (T. gondii myosin light chain 5 tagged at the endogenous locus) (Toxoplasma gondii)
Assay: co-IP; anti-Ty antibodies on MLC5-3Ty and MLC7-3Ty strains; silver stained SDS-PAGE gel; bands at the size of MyoH cut and identified by mass spectrometry; stringent co-IP conditions

Toxoplasma gondii myosin H (endogenous, untagged) (from UniProt A0A125YQD4)
binding: binds

No constants are given. Whether binding was seen depends on the method and setting. In cells and extracts the contact can be indirect. A result given as binding can be weak or reduced; the word gives no strength.
